Results: paper PMC8003104
No constants are given. Whether binding was seen depends on the method and setting. In cells and extracts the contact can be indirect. Some entries that bind do so weakly or less than the wild type. Where a sequence is shown, tags or fusion partners need not be part of it.

By UniProt entry, the sequences of proteins in these tests, tags left out.
UniProt P10415: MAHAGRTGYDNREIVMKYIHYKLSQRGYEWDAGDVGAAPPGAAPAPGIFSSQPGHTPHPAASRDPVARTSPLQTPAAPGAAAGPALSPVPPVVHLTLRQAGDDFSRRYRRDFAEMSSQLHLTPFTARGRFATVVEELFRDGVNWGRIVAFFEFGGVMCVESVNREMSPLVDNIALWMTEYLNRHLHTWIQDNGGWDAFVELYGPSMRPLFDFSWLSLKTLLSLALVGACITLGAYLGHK
UniProt Q07817: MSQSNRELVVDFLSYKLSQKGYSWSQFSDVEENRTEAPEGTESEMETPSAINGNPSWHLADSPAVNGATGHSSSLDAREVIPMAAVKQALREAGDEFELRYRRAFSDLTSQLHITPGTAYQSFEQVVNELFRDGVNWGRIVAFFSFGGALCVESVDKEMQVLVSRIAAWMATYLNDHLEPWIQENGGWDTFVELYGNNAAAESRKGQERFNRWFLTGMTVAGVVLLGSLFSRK
UniProt Q07820: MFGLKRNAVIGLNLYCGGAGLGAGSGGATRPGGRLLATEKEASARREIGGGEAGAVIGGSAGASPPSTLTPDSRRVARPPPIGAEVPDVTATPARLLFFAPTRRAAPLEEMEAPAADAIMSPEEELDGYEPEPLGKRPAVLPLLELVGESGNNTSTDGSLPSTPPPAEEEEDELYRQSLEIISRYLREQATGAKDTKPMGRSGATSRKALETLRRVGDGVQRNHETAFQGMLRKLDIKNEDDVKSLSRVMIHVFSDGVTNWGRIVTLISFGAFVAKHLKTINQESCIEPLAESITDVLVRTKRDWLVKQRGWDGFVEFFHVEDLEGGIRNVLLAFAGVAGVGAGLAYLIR

How the values were obtained:
Test in all cases: co-IP; HEK293T cells co-transfected with HA-ASB17 and a Flag-tagged partner; NP-40 lysis buffer (50 mM Tris-HCl pH 7.4, 150 mM NaCl, 1% NP-40, 1 mM EDTA, 5% glycerol); IP with anti-Flag (Figure 6A,B,E,G,I) or anti-HA (Figure 6C,D,F,H) at 4 C overnight, protein A/G-agarose, washes with 300 mM NaCl; immunoblot
Flag-ATG7 = molecular target: T1, Flag-ATG7 (UniProt O95352)
T1 sequence: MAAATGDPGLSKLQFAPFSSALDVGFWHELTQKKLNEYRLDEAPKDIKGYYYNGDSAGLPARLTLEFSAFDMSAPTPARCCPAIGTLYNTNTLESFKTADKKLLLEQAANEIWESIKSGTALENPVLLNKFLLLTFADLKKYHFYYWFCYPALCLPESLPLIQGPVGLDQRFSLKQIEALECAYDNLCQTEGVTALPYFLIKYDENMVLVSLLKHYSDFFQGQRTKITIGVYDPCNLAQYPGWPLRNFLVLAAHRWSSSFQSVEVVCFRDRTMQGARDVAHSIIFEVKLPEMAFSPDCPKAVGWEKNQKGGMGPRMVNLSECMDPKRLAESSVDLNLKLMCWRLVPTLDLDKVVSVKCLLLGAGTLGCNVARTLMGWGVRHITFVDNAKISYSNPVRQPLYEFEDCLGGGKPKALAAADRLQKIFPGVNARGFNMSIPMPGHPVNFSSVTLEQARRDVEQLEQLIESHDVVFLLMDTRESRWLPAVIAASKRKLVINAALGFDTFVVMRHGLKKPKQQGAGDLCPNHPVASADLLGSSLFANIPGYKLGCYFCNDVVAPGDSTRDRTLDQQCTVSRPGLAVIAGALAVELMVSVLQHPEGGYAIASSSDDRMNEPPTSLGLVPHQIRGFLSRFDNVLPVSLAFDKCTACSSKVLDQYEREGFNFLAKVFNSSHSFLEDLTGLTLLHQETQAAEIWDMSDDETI

Flag-BCL2 = Flag-BCL2 (UniProt P10415)
[1] = molecular target: T2, Flag-BCLW (B-cell leukemia/lymphoma w) (UniProt Q92843)
T2 sequence: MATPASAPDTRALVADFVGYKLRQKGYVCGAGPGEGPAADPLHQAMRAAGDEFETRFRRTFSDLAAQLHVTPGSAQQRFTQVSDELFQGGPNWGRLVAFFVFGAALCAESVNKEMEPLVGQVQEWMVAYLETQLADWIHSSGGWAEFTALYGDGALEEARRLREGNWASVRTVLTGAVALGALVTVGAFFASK

Flag-BCLX = Flag-BCLX (UniProt Q07817)
[2] = molecular target: Flag-MCL1 (myeloid cell leukemia-1) (UniProt Q07820)

binding (Flag-ATG7): binds
binding (Flag-BCL2): binds
binding [1]: binds
binding (Flag-BCLX): binds
binding [2]: binds
B1: HA-tagged ASB17 (ankyrin repeat and SOCS box protein 17) (protein, UniProt Q8WXJ9 1-295)
chain: MSKSTKLCGKTSCPRSNIFCNLLDKIVKRPSLQFLGQWGYHCYEPRIYRSLAKILRYVDLDGFDALLTDYIAFVEKSGYRFEVSFNLDFTEICVNTILYWVFARKGNPDFVELLLKKTKDYVQDRSCNLALIWRTFTPVYCPSPLSGITPLFYVAQTRQSNIFKILLQYGILEREKNPINIVLTIVLYPSRVRVMVDRELADIHEDAKTCLVLCSRVLSVISVKEIKTQLSLGRHPIISNWFDYIPSTRYKDPCELLHLCRLTIRNQLLTNNMLPDGIFSLLIPARLQNYLNLEI
